# PubChem BioAssay (NCATS)
# By UniProt entry, the sequences of proteins in these tests, tags left out. Where a name states a change or a piece, a line headed by the entry shows the natural chain unless it says otherwise.
# UniProt P05177, whole entry, looked up: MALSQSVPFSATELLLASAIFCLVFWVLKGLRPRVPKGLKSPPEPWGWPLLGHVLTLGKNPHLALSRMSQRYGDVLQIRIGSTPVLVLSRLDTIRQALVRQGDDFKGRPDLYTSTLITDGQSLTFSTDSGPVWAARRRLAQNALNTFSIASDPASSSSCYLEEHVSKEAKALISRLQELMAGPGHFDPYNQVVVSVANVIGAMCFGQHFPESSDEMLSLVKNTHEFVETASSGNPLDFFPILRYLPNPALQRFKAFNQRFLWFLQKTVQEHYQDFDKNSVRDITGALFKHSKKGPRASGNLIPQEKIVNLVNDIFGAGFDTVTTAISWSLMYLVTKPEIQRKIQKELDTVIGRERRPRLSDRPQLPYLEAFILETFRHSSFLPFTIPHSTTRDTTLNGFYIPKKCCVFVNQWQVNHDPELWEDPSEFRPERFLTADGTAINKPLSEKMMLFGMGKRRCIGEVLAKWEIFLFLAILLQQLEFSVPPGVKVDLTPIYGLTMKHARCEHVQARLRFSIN
# UniProt P27695, whole entry, looked up: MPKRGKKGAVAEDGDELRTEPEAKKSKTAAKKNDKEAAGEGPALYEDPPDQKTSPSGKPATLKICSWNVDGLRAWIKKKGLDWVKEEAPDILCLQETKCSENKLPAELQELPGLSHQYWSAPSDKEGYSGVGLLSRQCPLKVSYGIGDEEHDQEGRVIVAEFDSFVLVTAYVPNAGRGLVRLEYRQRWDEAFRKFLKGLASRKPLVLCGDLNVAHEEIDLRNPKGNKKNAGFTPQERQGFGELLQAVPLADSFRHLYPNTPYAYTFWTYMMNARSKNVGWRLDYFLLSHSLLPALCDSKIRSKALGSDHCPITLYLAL
# UniProt Q9NUW8, whole entry, looked up: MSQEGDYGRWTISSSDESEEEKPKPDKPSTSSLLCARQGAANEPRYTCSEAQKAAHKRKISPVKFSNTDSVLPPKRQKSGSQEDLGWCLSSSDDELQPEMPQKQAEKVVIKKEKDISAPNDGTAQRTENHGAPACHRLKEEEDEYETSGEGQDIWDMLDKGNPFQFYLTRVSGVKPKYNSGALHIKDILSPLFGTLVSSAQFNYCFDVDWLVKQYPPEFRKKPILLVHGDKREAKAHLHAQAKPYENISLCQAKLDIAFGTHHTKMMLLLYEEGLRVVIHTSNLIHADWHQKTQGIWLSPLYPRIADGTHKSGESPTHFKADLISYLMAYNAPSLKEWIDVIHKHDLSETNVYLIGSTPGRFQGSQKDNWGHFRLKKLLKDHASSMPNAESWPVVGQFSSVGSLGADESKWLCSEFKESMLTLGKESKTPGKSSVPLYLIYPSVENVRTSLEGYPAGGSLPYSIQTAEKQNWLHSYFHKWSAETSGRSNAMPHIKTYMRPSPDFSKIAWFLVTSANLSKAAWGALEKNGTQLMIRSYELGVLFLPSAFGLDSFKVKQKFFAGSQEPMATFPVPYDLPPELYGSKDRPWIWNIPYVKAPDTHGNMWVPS
# UniProt P11473: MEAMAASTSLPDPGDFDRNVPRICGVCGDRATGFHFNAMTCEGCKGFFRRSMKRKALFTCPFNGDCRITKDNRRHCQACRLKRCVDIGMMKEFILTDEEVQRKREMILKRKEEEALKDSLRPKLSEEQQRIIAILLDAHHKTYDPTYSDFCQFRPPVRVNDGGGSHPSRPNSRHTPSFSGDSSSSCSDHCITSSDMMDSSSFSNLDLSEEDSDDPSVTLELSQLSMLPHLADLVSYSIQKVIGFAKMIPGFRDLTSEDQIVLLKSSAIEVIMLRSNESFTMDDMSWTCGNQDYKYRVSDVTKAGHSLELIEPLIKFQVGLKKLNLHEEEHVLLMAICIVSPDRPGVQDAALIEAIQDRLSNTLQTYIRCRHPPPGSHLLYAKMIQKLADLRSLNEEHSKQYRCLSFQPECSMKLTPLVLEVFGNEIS
# UniProt P19793: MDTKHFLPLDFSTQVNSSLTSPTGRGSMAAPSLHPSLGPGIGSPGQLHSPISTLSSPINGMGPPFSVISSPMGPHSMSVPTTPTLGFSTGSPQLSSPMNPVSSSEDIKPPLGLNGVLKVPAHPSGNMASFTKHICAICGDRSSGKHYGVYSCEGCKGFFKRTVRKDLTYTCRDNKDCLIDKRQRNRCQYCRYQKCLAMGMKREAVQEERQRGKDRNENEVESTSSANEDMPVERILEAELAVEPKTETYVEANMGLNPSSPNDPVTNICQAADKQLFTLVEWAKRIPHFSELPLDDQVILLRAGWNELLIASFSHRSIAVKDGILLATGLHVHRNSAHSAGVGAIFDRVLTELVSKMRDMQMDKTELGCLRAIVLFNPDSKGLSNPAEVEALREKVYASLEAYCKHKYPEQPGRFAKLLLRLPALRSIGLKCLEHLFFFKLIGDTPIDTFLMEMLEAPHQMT
# UniProt P08684, whole entry, looked up: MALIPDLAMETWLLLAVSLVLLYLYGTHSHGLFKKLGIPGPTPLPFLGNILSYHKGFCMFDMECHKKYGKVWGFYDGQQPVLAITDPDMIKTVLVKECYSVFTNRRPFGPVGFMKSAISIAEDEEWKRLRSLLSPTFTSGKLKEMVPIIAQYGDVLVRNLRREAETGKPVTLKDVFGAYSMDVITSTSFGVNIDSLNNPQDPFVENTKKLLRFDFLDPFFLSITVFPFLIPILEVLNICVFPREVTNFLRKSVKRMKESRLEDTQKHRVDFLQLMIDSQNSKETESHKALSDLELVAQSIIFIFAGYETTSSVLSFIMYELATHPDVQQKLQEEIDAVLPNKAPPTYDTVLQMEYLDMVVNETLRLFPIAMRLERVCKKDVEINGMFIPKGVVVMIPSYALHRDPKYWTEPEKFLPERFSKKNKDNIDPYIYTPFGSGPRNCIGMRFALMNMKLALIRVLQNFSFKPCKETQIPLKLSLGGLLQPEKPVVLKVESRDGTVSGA
# UniProt P01375, whole entry, looked up: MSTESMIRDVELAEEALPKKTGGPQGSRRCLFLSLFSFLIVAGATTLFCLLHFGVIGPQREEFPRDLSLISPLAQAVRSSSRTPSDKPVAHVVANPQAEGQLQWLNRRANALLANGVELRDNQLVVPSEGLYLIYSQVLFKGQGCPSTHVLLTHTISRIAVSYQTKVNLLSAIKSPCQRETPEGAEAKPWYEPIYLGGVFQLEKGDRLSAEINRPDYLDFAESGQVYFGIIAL
# This list was built around the results that the source calls inconclusive (neither active nor inactive); the mix of calls is not that of the screen. For some assays here: Potencies of inconclusive entries are doubtful fits and often do not repeat. The source made the active and inactive calls. Unless noted, the call rests on the fitted dose curve; in most records, active means well fitted curve in the direction sought with a large enough effect; inconclusive means small, poorly fitted or top-dose-only effect, or another doubt; inactive means no such curve, though single readings can be large; an effect the other way counts as inactive or inconclusive.
# How the values were obtained:
# [1] = target: Cytochrome P450 1A2 (Homo sapiens) (UniProt P05177); experiment: qHTS for inhibitors of CYPIA2 against the NCATS DSHEA and TCM libraries (AID 1919976); further: potency means the concentration at half of the fitted maximal effect
# How it was run: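 Enzyme and pro-luciferin substrate, or substrate alone as no-enzyme background, are pre-incubated with test samples for 15 min at room temperature. NADPH regeneration system (1x final) initiates a 30-45 min dark reaction; luciferase detection reagent follows before luminescence reading.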
# [2] = Counterscreen for APE1 Inhibitors: Fluorescent Dye Displacement Assay (AID 2564);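 further: loss of thiazole orange fluorescence as the dye is displaced from duplex DNA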; further: potency means the concentration at half of the fitted maximal effect;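 on activity change, negative = inhibition: 0% = ThO with dsDNA and no compound and -100% = ThO without dsDNA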
# How it was run: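 Counterscreen flags promiscuous DNA binders: compounds displacing ThO from duplex DNA (abasic THF site, 50 nM) reduce 540 nm emission (480 nm excitation). ThO 250 nM final; Tris-HCl pH 7.5 with NaCl, MgCl2 and Tween-20.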
# [3] = target: Endonuclease 4 (Escherichia coli (strain K12)) (UniProt P0A6C1); experiment: Counterscreen for APE1 Inhibitors: qHTS Assay for Inhibitors of Endonuclease IV (AID 2565); further: potency means the concentration at half of the fitted maximal effect;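 on activity change, negative = inhibition: plate controls were uninhibited enzyme wells for no effect and no enzyme buffer wells for full effect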
# How it was run: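 Enzyme (2 nM) + compound, 15 min RT; add 50 nM TAMRA/BHQ-2 THF-site dsDNA; kinetic read ex525/em598, 3 reads/60 s; activity = read 3 − read 1. Buffer Tris pH 7.5, 50 mM NaCl, 2 mM MgCl2, DTT, Tween-20.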
# [4] = target: DNA repair nuclease/redox regulator APEX1 (Homo sapiens) (UniProt P27695); experiment: Confirmation qHTS Assay for Inhibitors of the Human Apurinic/apyrimidinic Endonuclease 1 (APE1) (AID 2572); further: potency means the concentration at half of the fitted maximal effect; nearly all actives have a fitted effect of over 30% in size
# How it was run: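 Confirmation qHTS in dose-response format: APE1 exposed to compound 15 min at RT, then reaction started with 50 nM final TAMRA/BHQ-2 abasic substrate. Three fluorescence reads 60 s apart; endpoint minus initial read gives progress.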
# [5] = target: Tyrosyl-DNA phosphodiesterase 1 (Homo sapiens) (UniProt Q9NUW8); experiment: Confirmation Assay for Inhibitors of Tyrosyl-DNA Phosphodiesterase (TDP1) (AID 489007); conditions: recombinant human TDP1 enzymatic activity, dose-response; further: potency means the concentration at half of the fitted maximal effect; nearly all actives have a fitted effect of over 40% in size
# How it was run: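 Compounds are preincubated 15 min at room temperature with 1 nM recombinant human Tdp1. The reaction starts on adding 15 nM FITC-phosphotyrosine DNA substrate, runs 5 min, and is detected by AlphaScreen beads after 10 min.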
# [6] = qHTS for Inhibitors of WRN Helicase: Thiazole Orange DNA Binding Counterscreen (AID 720499);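 further: drop in dye fluorescence marks compound binding to DNA; potency means the concentration at half of the fitted maximal effect; nearly all actives have a fitted effect of over 60% in size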
# How it was run: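 Mixture of 100 nM thiazole orange and 50 nM unlabeled DNA exposed to compound 15 min at room temperature. Dye displacement monitored by 480/530 nm fluorescence, identifying nonspecific DNA binders.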
# [7] = Cellular Toxicity (caspase-3) H-4-II-E (AID 663); conditions: H-4-II-E rat hepatoma; Potency: caspase-3 activation; caspase-3 activation: at 92.2 µM (top of the series), scaled: DMSO 0%, 100 µM tamoxifen 100%;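 further: cells exposed to compound for 16 hr before readout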
# How it was run: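 Caspase 3/7 activation measured in H-4-II-E cells in complete culture medium after 16 hr treatment at 37 °C, using luciferase-coupled substrate readout; AC50 values come from Hill-equation fits of normalized concentration-response data.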
# [8] = MultiTox-Fluor Cytotoxicity Assay - LYMP1-002 - Dead Cells (AID 960); conditions: LYMP1-002 lymphoblastoid cells, dead-cell protease fluorescence; cytotoxicity (dead cells): at 46.1 µM (top of the series);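 further: 0% = DMSO and 100% = tetraoctylammonium bromide; nearly all actives have a fitted effect of over 60% in size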
# How it was run: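 Cells were plated, rested 5 hr, then treated with compound dilution series for 16 hr at 37 C. After adding substrate reagent and 60 min at room temperature, dead-cell protease fluorescence gave concentration-response curves fitted by the Hill equation.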
# [9] = qHTS Assay for Identification of Small Molecule Inducers of Hypoxia Response (AID 2120; active means well fitted curve in the direction sought with a large enough effect in the signal ratio, with a control signal flat, not every such curve was filed as active; inconclusive means small, poorly fitted or top-dose-only effect, or a change in a side signal; inactive means no such curve, though single readings can be large or run the other way; the % refers to the signal ratio; further: 0% is about no effect); conditions: hypoxia response reporter cells, beta-lactamase ratio readout; activation: at 104 µM (top of the series)
# How it was run: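 Cell-based qHTS for reporter induction: hypoxia response element controlled beta-lactamase in ME-180 cells. Compounds incubated 17 h at 37 degrees C; activity from blue/green (460/530 nm) ratio, inducers ranked by AC50.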
# [10] = target: Vitamin D3 receptor (Homo sapiens) (UniProt P11473); experiment: qHTS assay for small molecule agonists of vitamin D receptor signaling (AID 588543; calls by dose curve;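 further: 0% = DMSO basal and 100% = reference agonist control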); conditions: HEK293T VDR-UAS-bla, beta-lactamase ratio, 16 h; activation: at 76.8 µM (top of the series)
# How it was run: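 Agonist-mode beta-lactamase reporter: HEK293T VDR-UAS-bla cells in charcoal-stripped 2% FBS, compound series 16 h 37 C, CCF4 2 h RT. EC50 from Hill fit, scaled against DMSO and 50 nM calcitriol control.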
# [11] = target: Retinoic acid receptor RXR-alpha (Homo sapiens) (UniProt P19793); experiment: qHTS assay for small molecule antagonists of retinoid X receptor alpha signaling (AID 588546; active means well fitted inhibition curve with a large enough effect in the signal ratio, with a control signal flat, not every such curve was filed as active; inconclusive means small, poorly fitted or top-dose-only effect, or effect the other way, or a change in a side signal; inactive means no such curve, though single readings can be large or run the other way; the % refers to the signal ratio;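 further: cells stimulated with 9-cis-retinoic acid as agonist; on the % scale 0 is the no-effect control and ±100 the full control effect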); conditions: HEK293T RXRa-UAS-bla, beta-lactamase ratio, antagonist mode
# How it was run: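 Beta-lactamase reporter inhibition, read as CCF4 fluorescence ratio (ex 405, em 460/530 nm) after 2 h at RT. HEK293T UAS-bla cells, 2500/well, were stimulated with 9-cis-RA at 500 or 100 nM final alongside test compound for 18 h at 37 C.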
# [12] = qHTS assay for small molecule agonists of the antioxidant response element (ARE) signaling pathway (AID 651741; active means well fitted activation curve with a large enough effect in the signal ratio; inconclusive means small, poorly fitted or top-dose-only effect, or effect the other way, or a change in a side signal; the % refers to the signal ratio; further: potency means the concentration at half of the fitted maximal effect; on activation: % of control where 0% means no effect); conditions: HepG2 ARE-bla reporter, beta-lactamase FRET ratio, 16 h; activation: at 96 µM (top of the series) unless noted
# How it was run: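 Reporter: beta-lactamase under ARE, stably in HepG2. Exposure: 16 h, 37 C, compounds delivered in DMSO by pin tool after 5 h cell preincubation. Readout: FRET substrate fluorescence after 2 h at RT.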
# [13] = qHTS assay to identify small molecules that stimulate interleukin-8 (IL-8) secretion (AID 651758; active means well fitted activation curve with a large enough effect in the signal ratio; inconclusive means small, poorly fitted or top-dose-only effect, or effect the other way, or a change in a side signal; the % refers to the signal ratio; further: 0% is about no effect); conditions: HTRF ratio (665/615); activation: at 92.2 µM (top of the series)
# How it was run: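 Quantitative HTS in THP-1 monocytic cells at 2000 cells per well, with 16 hrs compound incubation at 37 C. IL-8 in the medium was then quantified by HTRF immunoassay, read after 1-3 hrs at room temperature.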
# [14] = Cell Viability - H-4-II-E (AID 543);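 further: cells exposed to compound for 40 hours; on the % scale 0 is the no-effect control and ±100 the full control effect; nearly all actives have a fitted effect of over 35% in size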
# How it was run: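 Cells seeded at 1500 per well and rested 5 hr; compounds added; 40 hr incubation at 37 °C; CellTiter-Glo added, 20 min at room temperature; luminescence read. Hill-equation fits gave AC50.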
# [15] = Cell Viability - LYMP2-015 (AID 971);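 further: cells exposed to compound for 24 h; 0% = DMSO only and full effect = 92 µM tetraoctylammonium bromide; nearly all actives have a fitted effect of over 55% in size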
# How it was run: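 Cells are seeded at 2500 per well and incubated 5 hr at 37 C. Compounds are added across a concentration series for 24 hr at 37 C. CellTiter-Glo is added, and luminescence is read after 30 min at room temperature.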
# [16] = target: Vitamin D3 receptor (Homo sapiens) (UniProt P11473); experiment: qHTS assay for small molecule antagonists of vitamin D receptor signaling (AID 588541; calls by dose curve;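 further: receptor activated by calcitriol during compound treatment; on the % scale 0 is the no-effect control and ±100 the full control effect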); conditions: HEK293T VDR-UAS-bla, beta-lactamase ratio, antagonist mode; activity change, negative = inhibition: at 76.7 µM (top of the series)
# [17] = target: DNA repair nuclease/redox regulator APEX1 (Homo sapiens) (UniProt P27695); experiment: qHTS FP-Based Assay for Inhibitors of the Human Apurinic/apyrimidinic Endonuclease 1 (APE1) (AID 2573); further: potency means the concentration at half of the fitted maximal effect
# [18] = target: Cytochrome P450 3A4 (Homo sapiens) (UniProt P08684); experiment: qHTS Assay for Inhibitors and Substrates of Cytochrome P450 3A4 (AID 884); further: on the % scale 0 is the no-effect control and ±100 the full control effect; nearly all actives have a fitted effect of over 50% in size
# How it was run: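 Luminescent readout of luciferin produced by CYP3A4 (20 nM) dealkylation of Luciferin-PPXE, 25 uM (its KM). NADPH-driven reaction ran 60 min at RT after 10 min compound preincubation; data scaled to 57 uM ketoconazole as 100% inhibition.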
# [19] = Cell Viability - LYMP2-014 (AID 983);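 further: cells exposed to compound for 24 h at 37 °C; plate controls were DMSO only for no effect and 92 µM tetraoctylammonium bromide for full effect; nearly all actives have a fitted effect of over 50% in size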
# How it was run: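 Cells are plated at 2500/well and left 5 hr at 37 C. Compounds are added across a concentration range and incubated 24 hr at 37 C in complete medium. CellTiter-Glo is added, and luminescence is read after 30 min at room temperature.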
# [20] = target: Peroxisome proliferator-activated receptor gamma (Homo sapiens) (UniProt P37231); experiment: qHTS assay for small molecule antagonists of peroxisome proliferator-activated receptor gamma signaling (AID 588537; active means well fitted inhibition curve with a large enough effect in the signal ratio, with a control signal flat, not every such curve was filed as active; inconclusive means small, poorly fitted or top-dose-only effect, or effect the other way, or a change in a side signal; the % refers to the signal ratio;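 further: reporter cells co-stimulated with 50 nM rosiglitazone agonist during compound treatment; % of control where 0% means no effect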); conditions: HEK293 PPARg-UAS-bla, beta-lactamase ratio, antagonist mode; activity, negative = inhibition: at 76.8 µM (top of the series)
# How it was run: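 Compounds are tested as concentration series for inhibition of rosiglitazone-driven (50 nM) reporter expression in GeneBLAzer PPAR-gamma-UAS-bla HEK293 cells. After 16 h at 37 C, CCF4 substrate is added for 2 h at room temperature and blue/green fluorescence is measured.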
# [21] = target: Tumor necrosis factor (Homo sapiens) (UniProt P01375); experiment: qHTS assay to identify small molecules that stimulate Tumor Necrosis Factor-alpha (TNF-alpha) secretion (AID 651757; active means well fitted curve in the direction sought with a large enough effect in the signal ratio; inconclusive means small, poorly fitted or top-dose-only effect, or a change in a side signal; inactive means no such curve, though single readings can be large or run the other way; the % refers to the signal ratio; further: 0% is about no effect); conditions: Human cells, HTRF 665/615 ratio; activation (TNF-alpha secretion): at 92.2 µM (top of the series)
# How it was run: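 Human monocytic THP-1 cells are plated, treated with compound and held at 37 C for 17 hrs. Labeled anti-TNF-alpha antibody mixture is then added; after 3 hr at room temperature, TR-FRET signal reports secreted TNF-alpha.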
structure (smiles),measurement,setting,value
COc1ccc2ccc(=O)oc2c1,Potency,[1],active: 14.1 µM
C=CCn1c(=S)[nH]c2scc(-c3ccco3)c2c1=O,Potency,[2],inactive
O=C(NC1CC1)c1cc(-c2ccco2)nc2ccccc12,Potency,[2],"inconclusive: 10 µM [inhibitor, partial curve]"
same,Potency,[3],"inconclusive: 0.199 µM [inhibitor, full curve]"
same,Potency,[4],active: 25.1 µM
same,Potency,[5],active: 3.55 µM
same,Potency,[6],"inconclusive: 27.1 µM [inhibitor, partial curve, poor fit]"
O=C(CSc1nc(-c2ccc(F)cc2)nc2c1Cc1ccccc1O2)Nc1ccc(C(=O)O)cc1,Potency,[2],active: 3.16 µM
same,Potency,[3],"inconclusive: 14.1 µM [inhibitor, partial curve]"
Cc1cccc(O)c1C,Potency,[7],inactive
same,Potency,[8],inactive
same,activation,[9],inconclusive: -0.809%
same,Potency,[10],inactive
same,max response,[11],inactive: 20.3%
same,Potency,[12],"inconclusive: 37.6 µM [activator, partial curve, poor fit]"
same,activation,[13],inconclusive: 2.37%
Cc1ccc(NC(=O)CN2C(=O)N/C(=C/c3ccco3)C2=O)cc1,Potency,[2],inactive
O=Cc1ccc(Cl)c(Cl)c1,Potency,[14],inactive
same,Potency,[15],inactive
same,activation,[9],inconclusive: 0.161%
same,Potency,[16],inactive
same,max response,[11],inconclusive: 6.63%
same,activation,[12],inconclusive: 6.03%
same,activation,[13],inconclusive: 1.82%
COc1cc(OC)c2c(-c3ccccc3)cc(=O)oc2c1C(CC(=O)N1CCN(c2ccccc2)CC1)c1ccc2c(c1)OCO2 (stereo not drawn),Potency,[2],inactive
same,Potency,[3],inactive
same,Potency,[4],active: 12.6 µM
Cc1ccc2c(c1)C1C=CCC1C(C(=O)O)N2 (stereo not drawn),Potency,[2],"inconclusive: 11.2 µM [inhibitor, partial curve, poor fit]"
Cc1ccc(/C=c2\sc3nc(-c4ccccc4Br)nn3c2=O)o1,Potency,[2],"inconclusive: 17.8 µM [inhibitor, partial curve]"
COCCN=c1scc(-c2ccco2)n1/N=C/c1ccc(O)c(O)c1O,Potency,[2],active: 11.2 µM
same,Potency,[3],inactive
same,Potency,[17],active: 14.1 µM
Cc1occc(=O)c1O,Potency,[18],inactive
same,Potency,[19],inactive
same,Potency,[9],inactive
same,"activity, negative = inhibition",[20],inconclusive: 11.4%
same,Potency,[21],inactive
same,activation,[13],inconclusive: -13.4%

# An excerpt of the results above, for reference:
structure (smiles),measurement,setting,value
Cc1cccc(O)c1C,Potency,[7],inactive
same,Potency,[8],inactive
